# Results: US12535491B2, “Vaccine comprising protein-targeted (PT) extracellular DNA isolated from bacterial matrix” (priority 2018, dated 2026)
# Tested on: heat-resistant proteins of human plasma
# Assay: LC/MS of heat-resistant proteins in plasma after exposure to proteinase K and boiling
# Details: LC/MS; healthy human blood plasma after incubation for 30 minutes with Proteinase K, following heating for 100° C. for 5 minutes (probe_2)
row,Substance,N-plasma + pK
1,APOB_HUMAN,100
2,FA9_HUMAN,2
3,APOA_HUMAN,15
4,HV315_HUMAN [HV315_HUMAN [3]],2
5,CO3_HUMAN [CO3_HUMAN [3]],93
6,HV315_HUMAN,1
